The values below come from patent US20070128661A1 (Harvard, published 2007).

Results from cells or extracts need not show a direct contact. No signal at the amounts used counts as a negative. Protein sequences can lack the tags named with them.

In this data set the target is T1, T-bet (UniProt Q9JKD8).
T1 sequence (limits assumed): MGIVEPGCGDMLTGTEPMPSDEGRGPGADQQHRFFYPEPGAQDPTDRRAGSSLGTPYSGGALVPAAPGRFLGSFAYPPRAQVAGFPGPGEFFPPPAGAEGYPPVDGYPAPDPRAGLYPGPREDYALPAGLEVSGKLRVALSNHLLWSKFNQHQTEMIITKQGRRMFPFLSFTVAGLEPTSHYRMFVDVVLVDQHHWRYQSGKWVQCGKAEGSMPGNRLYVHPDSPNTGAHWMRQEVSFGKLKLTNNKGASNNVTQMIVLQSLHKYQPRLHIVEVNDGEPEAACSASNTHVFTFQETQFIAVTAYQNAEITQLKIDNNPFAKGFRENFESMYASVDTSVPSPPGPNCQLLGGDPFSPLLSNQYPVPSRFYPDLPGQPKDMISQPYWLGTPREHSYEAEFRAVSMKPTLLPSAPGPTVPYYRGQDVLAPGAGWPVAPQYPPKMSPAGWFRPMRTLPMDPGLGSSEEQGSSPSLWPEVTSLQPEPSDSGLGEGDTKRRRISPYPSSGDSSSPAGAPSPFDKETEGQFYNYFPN
The data set is described as follows: pull-down. The settings on record: protein in a lysate after overexpression, label: 5' biotin.

Take “ATTAAAACTGCTCTCTAACTAAGGGCTAACCCG (double strand) [IL-2 promoter mt T-box site]”: the binding result (T-box mutated, HKMG buffer, variant of IL-2 promoter wt T-box site) is “no binding”.
Consider “ATTAAAACTGCCACCTAAGTGTGGGCTAACCCG (double strand) [IL-2 promoter wt T-box site]”, for which the binding result (HKMG buffer: 10 mM Hepes pH 7.9, 100 mM KCl, 5 mM MgCl2) is given as “binds”.
